Experimental data: PubChem BioAssay AID743454 (Peter MacCallum Cancer Centre, 2014)
Shown is a random part of about 18,000 reagents tested. 450 of all reagents (2.5%) were called active. 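Single biological run; no consistent viability z cut-off exists, so the class columns, not z-scores, define the calls.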 Unmarked entries are inactive. The numbers tell different reagents against one gene apart.

- Assay: 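Search for knock-downs that restore vorinostat killing in resistant colon cancer cells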 (primary screen)
- Cells: human HCT116-VR colon cancer cells, selected for vorinostat resistance
- Knock-down reagent: siRNA pool against human genes, 40 nM siRNA pool
- Time to read-out: vorinostat for 24 h, read-out about 72 h after transfection
- Conditions: vorinostat at 2.5 µM final
- Measurement: 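Cell viability by CellTiter-Fluor and caspase 3/7 activity by luminescence, each scaled to mock wells per plate, duplicates averaged, then robust z-scored over all plates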
- Scale: viability robust z-score: higher = more viable cells than screen typical; caspase robust z-score: higher = more caspase 3/7 activity than screen typical
- Call rule: 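Hits are knock-downs in viability class RV1/RV2 or caspase class CA1/CA2, excluding ones that killed cells in the no-drug cell-count arm; hits then retested with single siRNAs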

Knock-down of OPN1MW came out at: viability hit class no change; caspase hit class no change; viability robust z-score -0.73; caspase robust z-score -0.62.
Depletion of MICAL2 #1 came out at: viability hit class no change; caspase hit class no change; viability robust z-score -0.7; caspase robust z-score -0.9.
Against MICAL2 #2 the deposit lists viability hit class no change; caspase hit class no change; viability robust z-score 0.54; caspase robust z-score -0.22.
EEIG2 showed viability hit class no change; caspase hit class no change; viability robust z-score 1.48; caspase robust z-score -0.05.
After knock-down of SAMD13 the results were viability hit class no change; caspase hit class no change; viability robust z-score -0.32; caspase robust z-score -0.4.
For NCAPG2, the values are viability hit class no change; caspase hit class no change; viability robust z-score -0.32; caspase robust z-score 1.55.
TRH gave viability hit class no change; caspase hit class no change; viability robust z-score -2.14; caspase robust z-score 1.14.

Part of the list above, limited to “viability hit class”:
SAMD13	no change
NCAPG2	no change

The listing continues:
For CYP27B1, the values are viability hit class no change; caspase hit class no change; viability robust z-score 0.2; caspase robust z-score -0.62.
Depletion of PRSS42P resulted in: viability hit class no change; caspase hit class no change; viability robust z-score 0.45; caspase robust z-score -0.52.
With knock-down of GEMIN2 the results were viability hit class no change; caspase hit class no change; viability robust z-score 0.98; caspase robust z-score 0.22.
Knock-down of ITPKC resulted in: viability hit class no change; caspase hit class no change; viability robust z-score -0.14; caspase robust z-score -1.09.
LST1 showed viability hit class no change; caspase hit class no change; viability robust z-score -1.48; caspase robust z-score 0.88.
Against NIT1, the values are viability hit class no change; caspase hit class no change; viability robust z-score -0.93; caspase robust z-score -0.88.
Against UNC5D, the values are viability hit class no change; caspase hit class no change; viability robust z-score -0.92; caspase robust z-score -1.5.
